Source: paper PMC5035021
The exact form of at least one protein or probe is not confirmed. For part of these data: No signal at the amounts used counts as a negative. For part of these data: Results from cells or extracts need not show a direct contact. For part of these data: Tags and fusion partners may be left off the protein sequences shown.

Key:
[1] = biological target: T1, IRF-3 (nuclear extract, poly I:C-transfected HeLa) (human (HeLa)) (UniProt Q14653); assay: competition with a labelled probe; details: 50-fold molar excess unlabeled against labeled WT; 8 pmol DIG-labeled probe with 5 ug nuclear lysate protein or GST-fusion protein (50-500 nM), Roche DIG gel shift kit, 6% DNA retardation gel; protein in an extract
T1 sequence (looked up, limits assumed): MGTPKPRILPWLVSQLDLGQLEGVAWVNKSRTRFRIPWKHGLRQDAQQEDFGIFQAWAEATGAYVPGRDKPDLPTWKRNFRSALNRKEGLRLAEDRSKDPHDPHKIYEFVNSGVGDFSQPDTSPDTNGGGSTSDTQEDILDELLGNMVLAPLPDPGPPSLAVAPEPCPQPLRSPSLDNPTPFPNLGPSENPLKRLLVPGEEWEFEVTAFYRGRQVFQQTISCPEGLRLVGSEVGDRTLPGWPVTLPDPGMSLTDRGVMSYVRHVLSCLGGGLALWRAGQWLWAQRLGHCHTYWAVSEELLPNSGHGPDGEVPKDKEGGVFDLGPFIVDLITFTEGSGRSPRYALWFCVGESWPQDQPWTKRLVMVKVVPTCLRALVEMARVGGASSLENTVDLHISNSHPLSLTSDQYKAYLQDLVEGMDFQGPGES

[2] = biological target: T1, IRF-3 (nuclear extract, poly I:C-transfected HeLa) (human (HeLa)); assay: EMSA; details: poly I:C-treated extract; 8 pmol DIG-labeled probe with 5 ug nuclear lysate protein or GST-fusion protein (50-500 nM), Roche DIG gel shift kit, 6% DNA retardation gel; protein in an extract; label: DIG
[3] = biological target: GST-IRF-3(5D) (human (HeLa cDNA)) (UniProt Q14653); assay: EMSA; details: 8 pmol DIG-labeled probe with 5 ug nuclear lysate protein or GST-fusion protein (50-500 nM), Roche DIG gel shift kit, 6% DNA retardation gel, recombinant protein, residues 1-427, protein details: N-terminal GST (pGEX5x-1), label: DIG
[4] = biological target: T1, IRF-3 (nuclear extract, poly I:C-transfected HeLa) (human (HeLa)); assay: EMSA supershift (complex lost with anti-IRF-3); details: poly I:C-treated extract, control IgG no effect; 8 pmol DIG-labeled probe with 5 ug nuclear lysate protein or GST-fusion protein (50-500 nM), Roche DIG gel shift kit, 6% DNA retardation gel; protein in an extract; label: DIG

“GTTGCACTTTCGATGGGACCTTTAGTTATTAAAG / GGAACTTTAATAACTAAAGGTCCCATCGAAAGTG [RIG-I IRF-E MT, unlabeled competitor]”: no binding [1].
“GTTGCACTTTCGATGGGACCTTTAGTTATTAAAG / GGAACTTTAATAACTAAAGGTCCCATCGAAAGTG [RIG-I IRF-E MT]”: no binding [2]; no binding ([3]; 500 nM protein).
“GTTGCACTTTCGATTTTCCCTTTAGTTATTAAAG / GGAACTTTAATAACTAAAGGGAAAATCGAAAGTG [RIG-I IRF-E WT, unlabeled competitor]”: binds [1].
“GTTGCACTTTCGATTTTCCCTTTAGTTATTAAAG / GGAACTTTAATAACTAAAGGGAAAATCGAAAGTG [RIG-I IRF-E WT]”: binds ([3]; 50, 125, 500 nM protein, concentration-dependent); binds [4].
